Laboratory results as given in PMC7924758, “IAA3-mediated repression of PIF proteins coordinates light and auxin signaling in Arabidopsis” (PLoS Genetics, 2021).
These are yes or no findings as the source states them, for the method shown. Binding seen in cells or lysates may run through a third protein. A result given as binding can be weak or reduced; the word gives no strength. Sequences can lack the tags named with a protein.

Target: T1, IAA3 fused to the C-terminal fragment of luciferase (c-LUC) (Arabidopsis thaliana) (UniProt Q38822)
T1 sequence: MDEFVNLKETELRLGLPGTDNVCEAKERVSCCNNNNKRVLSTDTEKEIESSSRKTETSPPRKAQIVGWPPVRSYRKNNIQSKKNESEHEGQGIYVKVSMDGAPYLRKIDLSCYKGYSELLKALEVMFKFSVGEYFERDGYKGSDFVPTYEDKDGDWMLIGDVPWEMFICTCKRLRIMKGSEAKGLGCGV
Assay: split reporter; firefly luciferase complementation imaging (LCI) with truncated PIF4 (nLUC) and truncated IAA3 (cLUC), Fig 4G-I; host not stated for these panels

Substance | binding
PIF4ΔC (PIF4 without the bHLH domain) (Arabidopsis thaliana) (domain or fragment) | binds
PIF4ΔN (PIF4 without the APB domain) (Arabidopsis thaliana) (domain or fragment) | binds
